Measured values as given in article PMC3828177.
No constants are given. Whether binding was seen depends on the method and setting. In cells and extracts the contact can be indirect. Some entries that bind do so weakly or less than the wild type. Sequences can lack the tags named with a protein.

Key:
Assay in all cases: co-IP; H1299 expressing FLAG-B55α species in the absence and presence of HA-E4orf4; anti-FLAG precipitation, blot with anti-p107 (endogenous p107)
[1] = target: T1, FLAG-B55α (wild type) (rat) (UniProt P36876)
T1 sequence: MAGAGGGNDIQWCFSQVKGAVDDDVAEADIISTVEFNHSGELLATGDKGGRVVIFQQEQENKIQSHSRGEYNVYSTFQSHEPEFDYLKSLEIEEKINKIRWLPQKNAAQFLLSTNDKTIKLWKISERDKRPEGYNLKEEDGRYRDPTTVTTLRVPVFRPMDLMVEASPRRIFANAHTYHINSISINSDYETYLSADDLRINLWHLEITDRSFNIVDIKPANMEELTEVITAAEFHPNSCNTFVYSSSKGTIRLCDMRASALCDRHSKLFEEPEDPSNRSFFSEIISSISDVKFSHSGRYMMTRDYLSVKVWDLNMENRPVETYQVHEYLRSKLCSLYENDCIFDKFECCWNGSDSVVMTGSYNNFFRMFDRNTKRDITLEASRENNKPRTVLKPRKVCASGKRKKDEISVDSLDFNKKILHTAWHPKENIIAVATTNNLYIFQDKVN

FLAG-B55α D197K (rat) = target: T2, FLAG-B55α D197K (rat) (UniProt P36876)
T2 sequence: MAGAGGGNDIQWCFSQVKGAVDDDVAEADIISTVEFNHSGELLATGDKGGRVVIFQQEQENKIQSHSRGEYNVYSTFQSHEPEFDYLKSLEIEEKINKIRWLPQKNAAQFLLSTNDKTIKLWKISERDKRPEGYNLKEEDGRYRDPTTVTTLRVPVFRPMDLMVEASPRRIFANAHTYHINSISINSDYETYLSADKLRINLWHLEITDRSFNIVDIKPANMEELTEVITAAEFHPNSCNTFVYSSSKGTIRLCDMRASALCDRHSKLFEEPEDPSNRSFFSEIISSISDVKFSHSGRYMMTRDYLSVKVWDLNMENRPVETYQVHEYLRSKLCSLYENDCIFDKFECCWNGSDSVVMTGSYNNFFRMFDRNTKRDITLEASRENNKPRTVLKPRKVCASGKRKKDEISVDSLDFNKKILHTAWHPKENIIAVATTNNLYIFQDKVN

FLAG-B55α D340K (rat) = target: T3, FLAG-B55α D340K (rat) (UniProt P36876)
T3 sequence: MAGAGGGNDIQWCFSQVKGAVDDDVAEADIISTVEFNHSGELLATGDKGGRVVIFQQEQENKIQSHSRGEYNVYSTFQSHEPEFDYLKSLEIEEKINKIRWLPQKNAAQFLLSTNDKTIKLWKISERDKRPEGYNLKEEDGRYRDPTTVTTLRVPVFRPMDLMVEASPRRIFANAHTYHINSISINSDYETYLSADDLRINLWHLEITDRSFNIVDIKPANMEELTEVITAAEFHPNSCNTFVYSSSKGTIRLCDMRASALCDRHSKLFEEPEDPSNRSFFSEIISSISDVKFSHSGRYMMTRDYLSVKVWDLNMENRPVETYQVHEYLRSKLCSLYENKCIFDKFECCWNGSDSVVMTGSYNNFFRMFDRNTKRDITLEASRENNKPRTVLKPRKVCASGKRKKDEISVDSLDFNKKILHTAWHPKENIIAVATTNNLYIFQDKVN

[2] = target: T4, FLAG-B55α E91A/E93A/E94A/F343A (rat) (UniProt P36876)
T4 sequence: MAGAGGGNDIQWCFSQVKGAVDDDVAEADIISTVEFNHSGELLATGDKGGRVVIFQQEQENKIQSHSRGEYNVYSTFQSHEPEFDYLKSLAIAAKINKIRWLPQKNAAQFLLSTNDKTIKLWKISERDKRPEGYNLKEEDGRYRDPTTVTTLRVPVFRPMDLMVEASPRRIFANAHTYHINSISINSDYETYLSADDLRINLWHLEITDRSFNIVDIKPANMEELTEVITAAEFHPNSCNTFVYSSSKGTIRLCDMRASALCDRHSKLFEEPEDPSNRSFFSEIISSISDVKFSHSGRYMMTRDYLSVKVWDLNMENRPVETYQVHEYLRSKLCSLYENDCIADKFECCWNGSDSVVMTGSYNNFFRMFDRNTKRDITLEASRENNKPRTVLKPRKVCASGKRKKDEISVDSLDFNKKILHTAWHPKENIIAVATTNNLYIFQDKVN

B1: p107 (endogenous) (protein, UniProt P28749 1-1068)
chain: MFEDKPHAEGAAVVAAAGEALQALCQELNLDEGSAAEALDDFTAIRGNYSLEGEVTHWLACSLYVACRKSIIPTVGKGIMEGNCVSLTRILRSAKLSLIQFFSKMKKWMDMSNLPQEFRERIERLERNFEVSTVIFKKYEPIFLDIFQNPYEEPPKLPRSRKQRRIPCSVKDLFNFCWTLFVYTKGNFRMIGDDLVNSYHLLLCCLDLIFANAIMCPNRQDLLNPSFKGLPSDFHTADFTASEEPPCIIAVLCELHDGLLVEAKGIKEHYFKPYISKLFDRKILKGECLLDLSSFTDNSKAVNKEYEEYVLTVGDFDERIFLGADAEEEIGTPRKFTRDTPLGKLTAQANVEYNLQQHFEKKRSFAPSTPLTGRRYLREKEAVITPVASATQSVSRLQSIVAGLKNAPSDQLINIFESCVRNPVENIMKILKGIGETFCQHYTQSTDEQPGSHIDFAVNRLKLAEILYYKILETVMVQETRRLHGMDMSVLLEQDIFHRSLMACCLEIVLFAYSSPRTFPWIIEVLNLQPFYFYKVIEVVIRSEEGLSRDMVKHLNSIEEQILESLAWSHDSALWEALQVSANKVPTCEEVIFPNNFETGNGGNVQGHLPLMPMSPLMHPRVKEVRTDSGSLRRDMQPLSPISVHERYSSPTAGSAKRRLFGEDPPKEMLMDKIITEGTKLKIAPSSSITAENVSILPGQTLLTMATAPVTGTTGHKVTIPLHGVANDAGEITLIPLSMNTNQESKVKSPVSLTAHSLIGASPKQTNLTKAQEVHSTGINRPKRTGSLALFYRKVYHLASVRLRDLCLKLDVSNELRRKIWTCFEFTLVHCPDLMKDRHLDQLLLCAFYIMAKVTKEERTFQEIMKSYRNQPQANSHVYRSVLLKSIPREVVAYNKNINDDFEMIDCDLEDATKTPDCSSGPVKEERGDLIKFYNTIYVGRVKSFALKYDLANQDHMMDAPPLSPFPHIKQQPGSPRRISQQHSIYISPHKNGSGLTPRSALLYKFNGSPSKSLKDINNMIRQGEQRTKKRVIAIDSDAESPAKRVCQENDDVLLKRLQDVVSERANH
For B1, the binding [1] was “binds”, the binding (FLAG-B55α D197K (rat)) was “no binding” and the binding (FLAG-B55α D340K (rat)) was “binds”. For the same binder, the binding [2] was “binds”.
